Our source for the IC50 values is patent US5252581A, “Substituted aminothienopyridines, pharmaceutical composition and use” (Hoechst-Roussel Pharmaceuticals Inc., priority 1992, dated 1993).

Sequences of proteins named here, by UniProt entry; tags and fusion partners are left off. Residues count along the entry.
UniProt Q63380, 1-617: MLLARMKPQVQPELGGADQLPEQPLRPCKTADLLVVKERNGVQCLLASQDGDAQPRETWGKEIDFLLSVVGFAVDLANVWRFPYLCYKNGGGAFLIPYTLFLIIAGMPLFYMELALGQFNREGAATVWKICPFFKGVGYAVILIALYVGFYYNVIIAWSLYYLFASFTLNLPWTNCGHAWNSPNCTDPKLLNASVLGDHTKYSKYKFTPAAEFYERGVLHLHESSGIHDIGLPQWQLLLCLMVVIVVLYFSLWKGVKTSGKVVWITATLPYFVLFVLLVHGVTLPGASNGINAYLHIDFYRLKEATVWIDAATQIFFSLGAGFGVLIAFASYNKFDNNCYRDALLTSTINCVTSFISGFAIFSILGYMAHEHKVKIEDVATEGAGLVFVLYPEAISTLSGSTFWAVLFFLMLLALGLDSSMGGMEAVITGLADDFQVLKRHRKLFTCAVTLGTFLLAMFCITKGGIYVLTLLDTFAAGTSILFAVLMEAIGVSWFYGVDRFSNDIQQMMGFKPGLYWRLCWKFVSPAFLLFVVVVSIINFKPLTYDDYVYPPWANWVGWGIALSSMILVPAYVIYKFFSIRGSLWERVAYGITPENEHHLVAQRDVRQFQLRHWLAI

One may read the IC50 as the point on the concentration scale where inhibition reaches its midpoint. Read a low IC50 as higher potency.

The assay has as its target T1, ^3 H-Norepinephrine reuptake (Rattus norvegicus, UniProt Q63380).
T1 construct: from tissue; host or cells: whole brain (WB), rat inferred
The assay can be described thus: Inhibition of Biogenic Amine Reuptake, ^3 H-Norepinephrine (WB). The assay is classed as biochemical.

`CN(C)CCCN1c2ccccc2CCc2ccc(Cl)cc21` [Clomipramine, reference compound] yielded an IC50 of 360 nM. In other words, the sub-micromolar range.
